Literature values, collected in patent US20210315921A1, “Compounds and Methods for Modifying iAge” (Edifice Health, Inc,, priority 2020, published 2021).
At least one structure is not confirmed: it was looked up by name or label, or the drawing left a doubt.

Tested on: BK channel
Details: MCF-7 breast epithelial cancer cells, cited from earlier work

Question: What does the source list for `C[C@]12CC[C@@H]3c4ccc(O)cc4CC[C@H]3[C@@H]1CC[C@@H]2O` [Estradiol]?
Answer: concentration reaching maximal effect on BK channel activity: 10 nM; EC50 (read-out: EC50 of fast increase in BK channel activity): 0.08 nM
